# This is one part of the list. Further columns of the screen follow, without active or inactive calls. The list favours compounds with an active or inconclusive main result. Potencies come from curve fits of mixed quality, noted in brackets.
# Assay: qHTS Assay for Lipid Storage Modulators in Drosophila S3 Cells;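 for cell number change: cells counted by Cell Tracker Red CMTPX staining in the red channel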
# Details: BODIPY lipid droplet fluorescence, 18-24 h; for cell number change: measured here: cell count max response, cells fed with added oleic acid
# Outline: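 Laser-scanning cytometry quantifies lipid droplet accumulation (500–530 nm total intensity; droplet/cell object ratio) in oleic acid-fed (400 uM added) Drosophila S3 cells treated with a concentration series. 20 uM Triacsin C defined 100% inhibition.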
# [1] = measured here: lipid fluorescence (Fed channel) AC50, cells fed with added oleic acid
# [2] = measured here: cell number channel AC50, cells fed with added oleic acid
Compound,cell number change [%],AC50 [1],AC50 [2]
CC(C)OP(=O)(OC(C)C)C(C)NC(=O)Cc1ccccc1 (stereo not given),32.3,"18.4 µM [rising, single point]",
Cc1cc(C)n(Cc2cccc(C(=O)N/N=C/c3ccncc3)c2)n1,3.23,"3.26 µM [rising, single point]",
COc1cc(C(=O)Nc2oc(-c3ccccc3)c(-c3ccccc3)c2C#N)cc(OC)c1OC,22.9,,"0.082 µM [rising, full curve, poor fit]"
CCOC(=O)N1CCN(C(=O)CCCn2c(=S)[nH]c3ccc(Br)cc3c2=O)CC1,-59.4,"6.51 µM [falling, partial curve]","18.4 µM [falling, partial curve]"
CN(C(=O)COC(=O)c1ccc(Cl)s1)C1(C#N)CCCCC1,22.5,,
CCOc1ccccc1CN1CCNC(=O)C1CC(=O)NC1CCCCC1 (stereo not given),10.4,"6.51 µM [falling, single point]",
Cc1ccc([N+](=O)[O-])cc1NC(=O)c1cccnc1,47.3,,"29.1 µM [rising, partial curve, poor fit]"
CC1CCc2c(sc3nc4n(c(=O)c23)CCS4)C1 (stereo not given),-1.45,"0.58 µM [falling, single point]",
Cc1cc(C(=O)N/N=C/c2cc(Br)ccc2OC(=O)c2ccc(Br)cc2)n[nH]1,-19.8,"14.6 µM [falling, partial curve]",
CC(C)COc1ccc(-c2nnc(-c3ccco3)o2)cc1,-33.2,,"29.1 µM [falling, single point]"
Cc1cccn2c(=O)c3cc(C(=O)N4c5ccccc5CC4C)n(C)c3nc12 (stereo not given),7.76,"6.51 µM [rising, single point]",
Cc1ccc(C)c(NC(=O)CCN2CCC(C)CC2)c1,6.61,"6.51 µM [rising, single point]",
CCc1ccc(OCC(=O)NNC(=O)c2cc(S(=O)(=O)N3CCOCC3)ccc2N2CCCC2)cc1,8.01,"6.51 µM [falling, partial curve, poor fit]",
COc1ccc(CCNC(=O)C2CCCN2C(=O)Nc2cccc(C(C)=O)c2)cc1OC (stereo not given),-0.908,,
O=C(NCCCc1nc2ccccc2[nH]1)c1cccs1,3.73,"0.116 µM [rising, full curve, poor fit]",
CCOC(=O)/C(C(N)=NCCCO)=C(/O)c1ccccc1,-18.8,,
COc1cccc(N2CCN(S(=O)(=O)c3c(C)[nH]c(C)c3C(=O)N3CCCCC3)CC2)c1,-4.29,"29.1 µM [rising, single point]",
Cc1ccc2c(C(=O)CN3CCOCC3)c(C)[nH]c2c1,,"4.11 µM [rising, single point]","1.3 µM [rising, partial curve]"
O=C(CN(Cc1ccccc1)C(=O)CNS(=O)(=O)c1ccc(Cl)cc1)NCC1CCCO1 (stereo not given),28.2,,

# Fetched by compound from above (two):
Compound,cell number change [%],AC50 [1],AC50 [2]
Cc1ccc([N+](=O)[O-])cc1NC(=O)c1cccnc1,47.3,,"29.1 µM [rising, partial curve, poor fit]"
CN(C(=O)COC(=O)c1ccc(Cl)s1)C1(C#N)CCCCC1,22.5,,

# Next records follow:

Compound,cell number change [%],AC50 [1],AC50 [2]
Cc1ccc(C(=O)N/C(=C\c2cccnc2)C(=O)N2CCCC2)cc1,-6.72,,
O=C(C1=C(O)C(=O)N(c2ccccc2)C1c1ccc([N+](=O)[O-])cc1)c1cccs1 (stereo not given),0.993,,
O=C(NC12CC3CC(CC(C3)C1)C2)N1CCN(c2ccccc2)CC1,8.11,"29.1 µM [falling, single point]",
NC(=O)CC(NC(=O)Cc1cccc2ccccc12)c1ccc(N2CCC(N3CCCCC3)CC2)c([N+](=O)[O-])c1 (stereo not given),-7.77,"13 µM [falling, partial curve]",
CSC1=N/C(=C\c2cccnc2)C(=O)N1c1ccccc1,49.8,"5.8 µM [rising, full curve, poor fit]","0.206 µM [rising, full curve]"
Oc1c(C(c2ccccc2)N2CCN(Cc3ccccc3)CC2)sc2ncnn12 (stereo not given),20.8,"0.164 µM [falling, full curve, poor fit]",
NS(=O)(=O)c1cc2c(cc1Cl)NC(CC1CCCC1)NS2(=O)=O (stereo not given),21.3,"5.8 µM [falling, full curve]",
C/C(Cl)=C/Cn1c(SC(C)C)nc2c1c(=O)[nH]c(=O)n2C,10.4,"29.1 µM [rising, single point]",
Cc1cc(=O)c2cc3nc(-c4cccnc4)oc3c(Br)c2o1,-52.5,"3.66 µM [rising, single point]","18.4 µM [falling, single point]"
Nc1nc(NCC2CCCO2)nc(Nc2ccc(F)cc2)c1[N+](=O)[O-] (stereo not given),102,"6.51 µM [rising, single point]",
Cn1c(Cc2ccccc2)nnc1SCC(=O)NC1CCCCC1,-145,"23.1 µM [falling, partial curve]","25.9 µM [falling, partial curve]"
Cc1c(NS(=O)(=O)c2ccc(NC3CCCC3)c([N+](=O)[O-])c2)c(=O)n(-c2ccccc2)n1C,35.3,"29.1 µM [rising, single point]","5.17 µM [rising, full curve, poor fit]"
COc1ccccc1C(=O)OCC(=O)NC(=O)NCc1ccccc1,32.7,,
C/C=C(/C)C(=O)O[C@@H]1c2c(ccc3ccc(=O)oc23)O[C@@H]1C(C)(C)OC(=O)/C(C)=C\C,-10.3,"20.6 µM [falling, partial curve, poor fit]",
Cn1ncc(Cl)c1C(=O)NCc1ccc(Cl)cc1,-5.89,"25.9 µM [falling, single point]",
CCN(C(=O)CSc1nnc(-c2ccncc2)n1Cc1ccccc1)C1CCS(=O)(=O)C1 (stereo not given),125,,
O=c1oc2ccccc2c2c1C(c1ccc(Cl)cc1)Nc1ccc3ccccc3c1-2 (stereo not given),75.6,"29.1 µM [rising, single point]","7.31 µM [rising, partial curve]"
COc1ccccc1C1c2[nH]c3ccccc3c2CCN1Cc1ccc(NC(C)=O)s1 (stereo not given),18.5,,"2.91 µM [rising, partial curve]"
Cc1nc(C)n(CC(O)COc2ccc3cc(Br)ccc3c2)n1 (stereo not given),80.9,"0.00517 µM [rising, full curve, poor fit]","25.9 µM [rising, partial curve]"

# Source: PubChem BioAssay AID2685 (National Center for Advancing Translational Sciences (NCATS), 2010)
